Experimental data taken from PubChem BioAssay AID1259415 (National Center for Advancing Translational Sciences (NCATS), 2018).
About 18,000 (4.4%) of roughly 410,000 compounds were called active. This list was built around the results that the source calls inconclusive (neither active nor inactive); the mix of calls is not that of the screen. Cut-off read from the data, not from the text of the source: active = activity change below about -60%; inconclusive = no clear call, values can overlap the other calls; inactive = above about -39%.

experiment: qHTS Assay for inhibitors of the human cytomegalovirus (HCMV); conditions: HFF cells, HCMV-luciferase reporter, 72 h; at 57.5 µM; hits give low values
How it was run: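 Compounds were evaluated in HFFs infected with an HCMV luciferase reporter virus (MOI 1 PFU/cell). Luciferase in lysates collected 72 h post infection served as the replication measure.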
% is set by controls: 0 for no effect and ±100 for the full control effect.

SMILES	activity change, negative = inhibition
Cc1cccc(NC(=S)NCc2ccco2)n1	inconclusive: -42.1%
O=C(O)C1C2OC3C(OC(=O)C31)C2Br (stereo not given)	inconclusive: -53.8%
CCOc1ccc(N2C(=O)c3[nH]nc(-c4ccc(OC)cc4)c3C2c2cccs2)cc1 (stereo not given)	active: -95.5%
COC(=O)COC(=O)c1ccccc1NC(=O)c1ccccc1	inconclusive: -45.8%
Cc1ccc(C)c(Nc2nnc(-c3ccc(C)c(S(=O)(=O)NCC4CCCO4)c3)c3ccccc23)c1 (stereo not given)	active: -104%
O=c1[nH]c2ccccc2nc1C(Nc1ccccc1)c1ccccc1 (stereo not given)	inconclusive: -40.2%
COc1cccc(NC(=O)CSc2nc3ccccc3c(=O)n2Cc2cccs2)c1	inconclusive: -41.8%
O=C1CCc2cc(S(=O)(=O)NC(C(=O)Nc3cccc(F)c3)c3ccccc3)ccc2N1 (stereo not given)	inactive: 3.96%
Oc1cccc2c3c(oc12)CCCC3	inactive: 29.8%
O=S(=O)(Nc1cc(Cl)ccc1N1CCOCC1)c1ccccc1Cl	inconclusive: -41.5%
CC1=C(C(=O)Nc2ccccc2)C(c2ccc(O)cc2)N2C(=O)CSC2=N1 (stereo not given)	inactive: 19%
O=C(NCc1ccc(Cl)cc1)c1ccc(Cn2c(=O)c3cccn3c3cccnc32)cc1	inconclusive: -59.3%
Clc1ccc(-c2csc(N/N=C/c3cccnc3)n2)c(Cl)c1	active: -63.4%
CCOc1ccc(C(=O)NCCc2csc(-c3cccc(F)c3)n2)cc1OCC	inactive: -10.9%
Cc1noc2ncnc(Sc3ccc(Br)cc3)c12	active: -106%
COc1ccc(CCNC(=O)CCNS(=O)(=O)c2cc(Br)cnc2N)cc1OC	inconclusive: -42.5%
COc1ccccc1CN(CC(=O)NCc1ccc2c(c1)OCO2)C(=O)c1ccc2c(c1)OCCO2	inactive: -25.5%
COc1cc(Cl)c(S(=O)(=O)NCCCn2ccnc2)cc1Cl	inconclusive: -49%
Cc1noc(-c2ccccc2)c1-c1ccccc1[N+](=O)[O-]	active: -100%
Cc1cccc(CSc2cccc3cccnc23)c1	active: -108%
COc1ccc(Cl)cc1NC(=O)CN(C)Cc1ccc(OC)c(OC)c1	inconclusive: -40.5%
CC1=C(C(=O)N2CCOCC2)C(c2ccc(OC(F)F)cc2)NC(=S)N1c1ccccc1 (stereo not given)	inconclusive: -57.1%
CCCc1cc2c(=O)c(-c3ccc4c(c3)OCCO4)c(C)oc2cc1OS(C)(=O)=O	inconclusive: -54%
CC(C)(c1ccccc1)c1ccc(OCCN)cc1	active: -107%
Oc1ccc(C[C@H]2CN([C@@H](Cc3cccc(O)c3)CN3CCC[C@@H]3CN3C(=S)NC[C@@H]3Cc3ccccc3)C(=S)N2CC2CCCCC2)cc1	active: -71.6%

Looked up by compound from the list above (2):
SMILES	activity change, negative = inhibition
Cc1noc2ncnc(Sc3ccc(Br)cc3)c12	active: -106%
COc1ccccc1CN(CC(=O)NCc1ccc2c(c1)OCO2)C(=O)c1ccc2c(c1)OCCO2	inactive: -25.5%
